Assay results from article doi:10.1101/2020.08.03.234229.
Residue numbers refer to the chain shown, from its start. No constants are given. Whether binding was seen depends on the method and setting. Some binding calls cover weakened binding; strength is not graded here.

Experiments:
[1] = target: T1, tRNA splicing endonuclease TSEN, TSEN2–15–34–54 heterotetramer (human) (UniProt Q8NCE0+Q8WW01+Q9BSV6+Q7Z6J9); assay: native MS
T1 sequence (chain, high degree of phosphorylation (sites not given)) 1: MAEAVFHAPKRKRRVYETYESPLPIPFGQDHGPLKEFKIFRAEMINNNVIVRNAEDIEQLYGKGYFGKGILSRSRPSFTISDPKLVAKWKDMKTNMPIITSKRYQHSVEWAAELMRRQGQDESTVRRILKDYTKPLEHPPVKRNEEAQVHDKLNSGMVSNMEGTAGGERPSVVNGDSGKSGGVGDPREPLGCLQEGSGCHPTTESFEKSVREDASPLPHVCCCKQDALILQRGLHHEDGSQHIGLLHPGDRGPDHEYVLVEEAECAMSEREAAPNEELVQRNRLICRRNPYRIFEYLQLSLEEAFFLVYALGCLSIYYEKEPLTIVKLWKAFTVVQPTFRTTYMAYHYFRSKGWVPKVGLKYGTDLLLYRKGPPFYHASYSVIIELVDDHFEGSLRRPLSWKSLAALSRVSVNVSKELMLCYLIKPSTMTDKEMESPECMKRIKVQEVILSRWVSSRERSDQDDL
T1 sequence (chain, high degree of phosphorylation (sites not given)) 2: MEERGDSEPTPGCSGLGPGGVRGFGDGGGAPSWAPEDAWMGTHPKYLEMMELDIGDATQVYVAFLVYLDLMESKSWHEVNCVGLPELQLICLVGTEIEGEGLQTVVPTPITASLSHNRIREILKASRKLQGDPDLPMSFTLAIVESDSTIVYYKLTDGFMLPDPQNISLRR
T1 sequence (chain, high degree of phosphorylation (sites not given)) 3: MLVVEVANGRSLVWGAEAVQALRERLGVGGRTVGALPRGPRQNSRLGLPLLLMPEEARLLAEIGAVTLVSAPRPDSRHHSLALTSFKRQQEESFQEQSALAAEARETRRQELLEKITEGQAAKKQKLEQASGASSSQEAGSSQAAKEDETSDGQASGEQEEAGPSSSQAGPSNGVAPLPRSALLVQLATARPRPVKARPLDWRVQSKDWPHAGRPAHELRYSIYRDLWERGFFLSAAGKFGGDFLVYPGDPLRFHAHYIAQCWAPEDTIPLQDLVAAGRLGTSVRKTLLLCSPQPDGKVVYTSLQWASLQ
T1 sequence (chain, high degree of phosphorylation (sites not given)) 4: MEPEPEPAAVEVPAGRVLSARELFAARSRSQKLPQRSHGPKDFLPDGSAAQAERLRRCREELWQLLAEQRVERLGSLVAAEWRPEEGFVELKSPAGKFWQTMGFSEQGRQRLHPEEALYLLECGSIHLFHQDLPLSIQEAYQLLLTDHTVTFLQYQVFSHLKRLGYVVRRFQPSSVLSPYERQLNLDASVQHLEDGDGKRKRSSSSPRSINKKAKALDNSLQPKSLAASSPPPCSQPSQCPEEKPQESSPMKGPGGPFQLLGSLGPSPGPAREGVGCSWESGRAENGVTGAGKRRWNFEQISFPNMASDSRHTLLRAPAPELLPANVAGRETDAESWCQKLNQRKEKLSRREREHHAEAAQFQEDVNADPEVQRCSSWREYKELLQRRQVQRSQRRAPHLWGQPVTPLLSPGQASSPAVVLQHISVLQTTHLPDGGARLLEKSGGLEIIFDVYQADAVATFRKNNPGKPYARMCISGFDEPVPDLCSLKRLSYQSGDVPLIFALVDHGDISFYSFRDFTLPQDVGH

[2] = target: T1, tRNA splicing endonuclease TSEN, TSEN2–15–34–54 heterotetramer (human); assay: co-expression and co-purification
[3] = target: T2, catalytically inactive TSEN tetramer (TSEN2 H377A and TSEN34 H255A double mutant) (human) (UniProt Q8NCE0+Q8WW01+Q9BSV6+Q7Z6J9); assay: co-expression and co-purification
T2 sequence 1: T1 sequence (chain, high degree of phosphorylation (sites not given)) 1 with H377A
T2 sequence 2: T1 sequence (chain, high degree of phosphorylation (sites not given)) 2
T2 sequence 3: T1 sequence (chain, high degree of phosphorylation (sites not given)) 3 with H255A
T2 sequence 4: T1 sequence (chain, high degree of phosphorylation (sites not given)) 4

binding [1]: binds
binding [2]: binds
binding [3]: binds
B1: RNA kinase CLP1 (enzyme, UniProt Q92989 1-425)
chain: MGEEANDDKKPTTKFELERETELRFEVEASQSVQLELLTGMAEIFGTELTRNKKFTFDAGAKVAVFTWHGCSVQLSGRTEVAYVSKDTPMLLYLNTHTALEQMRRQAEKEEERGPRVMVVGPTDVGKSTVCRLLLNYAVRLGRRPTYVELDVGQGSVSIPGTMGALYIERPADVEEGFSIQAPLVYHFGSTTPGTNIKLYNKITSRLADVFNQRCEVNRRASVSGCVINTCGWVKGSGYQALVHAASAFEVDVVVVLDQERLYNELKRDLPHFVRTVLLPKSGGVVERSKDFRRECRDERIREYFYGFRGCFYPHAFNVKFSDVKIYKVGAPTIPDSCLPLGMSQEDNQLKLVPVTPGRDMVHHLLSVSTAEGTEENLSETSVAGFIVVTSVDLEHQVFTVLSPAPRPLPKNFLLIMDIRFMDLK
